This note sets out measurements from publication PMC4646629.

Results are given in words; binding and its absence hold for the method and conditions named. Binding seen in cells or lysates may run through a third protein. Binding calls can cover weak binding; strength is not graded here. Sequences can lack the tags named with a protein.

The target of the assay is cYFP-6b (Agrobacterium). In words: split reporter; BiFC: nYFP and cYFP fusions coexpressed in microbombarded N. benthamiana leaves, confocal microscopy 48 h later.

B1: nYFP-VFP3 (protein, UniProt Q8VZI9 1-249)
chain: METTPETQSKTHRLPAGREDWWSEDATATLIEAWGDRYVNLNRGNLRQNDWKEVADAVNSSHGNGRPKTDVQCKNRIDTLKKKYKTEKAKPLSNWCFFDRLDFLIGPVMKKSSGAVVKSALMNPNLNPTGSKSTGSSLDDDDDDDDDDEEDDDDAGDWGFVVRKHRKVEDVDSSEGSAFRELARSILKLGEAFERIEGKKQQMMIELEKQRMEVAKELELQRMNMLMEMQLELEKSKLGKRRAASGKKL
B1: the binding entry is on record as “binds”.

B2: nYFP-VFP5 (protein, UniProt Q9FFG0 1-248)
chain: METTTPQSKSSVSHRPPLGREDWWSEEATATLVEAWGNRYVKLNHGNLRQNDWKDVADAVNSRHGDNSRKKTDLQCKNRVDTLKKKYKTEKAKLSPSTWRFYNRLDVLIGPVVKKSAGGVVKSAPFKNHLNPTGSNSTGSSLEDDDEDDDEVGDWEFVARKHPRVEEVDLSEGSTCRELATAILKFGEVYERIEGKKQQMMIELEKQRMEVTKEVELKRMNMLMEMQLEIEKSKHRKRASASGKKNSH
B2: the binding result is listed as “binds”.
